The list shows a part of the results, in another mix than the full data. Single values of this set are uncertain.

Amino acid sequences for entries named in this document (tags omitted). A change or cut given only in a name is not applied to a line headed by its entry.
UniProt Q9C0C9: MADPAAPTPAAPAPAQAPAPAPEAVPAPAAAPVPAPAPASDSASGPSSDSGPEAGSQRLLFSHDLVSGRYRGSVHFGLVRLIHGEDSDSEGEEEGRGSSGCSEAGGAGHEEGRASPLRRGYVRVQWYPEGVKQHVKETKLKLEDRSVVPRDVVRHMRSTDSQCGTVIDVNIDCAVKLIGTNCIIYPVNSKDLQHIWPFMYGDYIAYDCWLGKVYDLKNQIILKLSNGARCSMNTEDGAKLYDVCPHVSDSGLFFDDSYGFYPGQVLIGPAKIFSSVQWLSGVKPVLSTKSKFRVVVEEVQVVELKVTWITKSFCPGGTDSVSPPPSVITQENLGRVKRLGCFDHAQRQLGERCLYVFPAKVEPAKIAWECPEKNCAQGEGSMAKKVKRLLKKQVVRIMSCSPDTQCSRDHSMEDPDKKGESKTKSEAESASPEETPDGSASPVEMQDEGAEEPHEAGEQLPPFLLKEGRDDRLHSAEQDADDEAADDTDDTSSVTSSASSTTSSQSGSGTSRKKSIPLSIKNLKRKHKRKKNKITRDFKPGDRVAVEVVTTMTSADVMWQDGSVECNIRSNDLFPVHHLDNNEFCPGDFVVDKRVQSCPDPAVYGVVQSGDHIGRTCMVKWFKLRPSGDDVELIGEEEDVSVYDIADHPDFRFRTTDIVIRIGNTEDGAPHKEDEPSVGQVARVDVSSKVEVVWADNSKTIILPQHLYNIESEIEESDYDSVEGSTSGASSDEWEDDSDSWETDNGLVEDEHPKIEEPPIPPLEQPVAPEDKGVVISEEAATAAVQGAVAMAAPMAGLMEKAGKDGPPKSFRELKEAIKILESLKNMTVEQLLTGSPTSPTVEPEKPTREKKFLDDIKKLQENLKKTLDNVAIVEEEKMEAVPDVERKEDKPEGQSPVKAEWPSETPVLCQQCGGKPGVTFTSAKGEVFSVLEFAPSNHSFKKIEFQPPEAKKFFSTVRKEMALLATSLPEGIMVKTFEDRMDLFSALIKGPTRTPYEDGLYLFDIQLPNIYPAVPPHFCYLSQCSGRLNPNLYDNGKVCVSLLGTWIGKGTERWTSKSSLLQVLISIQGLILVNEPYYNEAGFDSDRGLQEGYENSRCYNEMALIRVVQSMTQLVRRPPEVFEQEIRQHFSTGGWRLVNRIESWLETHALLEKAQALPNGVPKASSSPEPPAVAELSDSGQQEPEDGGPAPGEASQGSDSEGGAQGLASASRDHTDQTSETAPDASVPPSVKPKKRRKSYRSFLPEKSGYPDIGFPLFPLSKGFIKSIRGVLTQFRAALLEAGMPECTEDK
UniProt Q9BXJ9: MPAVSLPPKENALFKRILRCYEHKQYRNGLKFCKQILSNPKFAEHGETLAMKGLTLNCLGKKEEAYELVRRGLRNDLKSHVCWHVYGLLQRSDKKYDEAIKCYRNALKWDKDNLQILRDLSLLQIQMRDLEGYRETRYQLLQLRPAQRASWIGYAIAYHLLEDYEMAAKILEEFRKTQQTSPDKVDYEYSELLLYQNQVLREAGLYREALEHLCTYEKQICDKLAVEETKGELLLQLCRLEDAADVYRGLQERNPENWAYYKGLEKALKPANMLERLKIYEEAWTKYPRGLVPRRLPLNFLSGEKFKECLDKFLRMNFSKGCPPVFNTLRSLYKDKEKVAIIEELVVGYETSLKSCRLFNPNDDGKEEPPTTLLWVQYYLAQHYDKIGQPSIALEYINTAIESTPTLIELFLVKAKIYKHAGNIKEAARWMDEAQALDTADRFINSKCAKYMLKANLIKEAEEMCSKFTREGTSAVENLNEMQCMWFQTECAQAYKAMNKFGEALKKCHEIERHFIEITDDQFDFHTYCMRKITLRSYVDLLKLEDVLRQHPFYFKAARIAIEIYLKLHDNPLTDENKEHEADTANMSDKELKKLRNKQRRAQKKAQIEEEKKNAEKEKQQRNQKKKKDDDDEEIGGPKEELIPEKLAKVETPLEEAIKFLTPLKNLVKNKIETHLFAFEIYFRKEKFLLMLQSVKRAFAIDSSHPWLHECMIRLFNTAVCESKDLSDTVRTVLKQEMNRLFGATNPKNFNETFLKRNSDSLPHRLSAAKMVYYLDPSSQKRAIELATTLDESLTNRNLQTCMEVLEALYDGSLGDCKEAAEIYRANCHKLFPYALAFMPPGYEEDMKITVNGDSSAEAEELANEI
UniProt Q9BTC0, whole entry, looked up: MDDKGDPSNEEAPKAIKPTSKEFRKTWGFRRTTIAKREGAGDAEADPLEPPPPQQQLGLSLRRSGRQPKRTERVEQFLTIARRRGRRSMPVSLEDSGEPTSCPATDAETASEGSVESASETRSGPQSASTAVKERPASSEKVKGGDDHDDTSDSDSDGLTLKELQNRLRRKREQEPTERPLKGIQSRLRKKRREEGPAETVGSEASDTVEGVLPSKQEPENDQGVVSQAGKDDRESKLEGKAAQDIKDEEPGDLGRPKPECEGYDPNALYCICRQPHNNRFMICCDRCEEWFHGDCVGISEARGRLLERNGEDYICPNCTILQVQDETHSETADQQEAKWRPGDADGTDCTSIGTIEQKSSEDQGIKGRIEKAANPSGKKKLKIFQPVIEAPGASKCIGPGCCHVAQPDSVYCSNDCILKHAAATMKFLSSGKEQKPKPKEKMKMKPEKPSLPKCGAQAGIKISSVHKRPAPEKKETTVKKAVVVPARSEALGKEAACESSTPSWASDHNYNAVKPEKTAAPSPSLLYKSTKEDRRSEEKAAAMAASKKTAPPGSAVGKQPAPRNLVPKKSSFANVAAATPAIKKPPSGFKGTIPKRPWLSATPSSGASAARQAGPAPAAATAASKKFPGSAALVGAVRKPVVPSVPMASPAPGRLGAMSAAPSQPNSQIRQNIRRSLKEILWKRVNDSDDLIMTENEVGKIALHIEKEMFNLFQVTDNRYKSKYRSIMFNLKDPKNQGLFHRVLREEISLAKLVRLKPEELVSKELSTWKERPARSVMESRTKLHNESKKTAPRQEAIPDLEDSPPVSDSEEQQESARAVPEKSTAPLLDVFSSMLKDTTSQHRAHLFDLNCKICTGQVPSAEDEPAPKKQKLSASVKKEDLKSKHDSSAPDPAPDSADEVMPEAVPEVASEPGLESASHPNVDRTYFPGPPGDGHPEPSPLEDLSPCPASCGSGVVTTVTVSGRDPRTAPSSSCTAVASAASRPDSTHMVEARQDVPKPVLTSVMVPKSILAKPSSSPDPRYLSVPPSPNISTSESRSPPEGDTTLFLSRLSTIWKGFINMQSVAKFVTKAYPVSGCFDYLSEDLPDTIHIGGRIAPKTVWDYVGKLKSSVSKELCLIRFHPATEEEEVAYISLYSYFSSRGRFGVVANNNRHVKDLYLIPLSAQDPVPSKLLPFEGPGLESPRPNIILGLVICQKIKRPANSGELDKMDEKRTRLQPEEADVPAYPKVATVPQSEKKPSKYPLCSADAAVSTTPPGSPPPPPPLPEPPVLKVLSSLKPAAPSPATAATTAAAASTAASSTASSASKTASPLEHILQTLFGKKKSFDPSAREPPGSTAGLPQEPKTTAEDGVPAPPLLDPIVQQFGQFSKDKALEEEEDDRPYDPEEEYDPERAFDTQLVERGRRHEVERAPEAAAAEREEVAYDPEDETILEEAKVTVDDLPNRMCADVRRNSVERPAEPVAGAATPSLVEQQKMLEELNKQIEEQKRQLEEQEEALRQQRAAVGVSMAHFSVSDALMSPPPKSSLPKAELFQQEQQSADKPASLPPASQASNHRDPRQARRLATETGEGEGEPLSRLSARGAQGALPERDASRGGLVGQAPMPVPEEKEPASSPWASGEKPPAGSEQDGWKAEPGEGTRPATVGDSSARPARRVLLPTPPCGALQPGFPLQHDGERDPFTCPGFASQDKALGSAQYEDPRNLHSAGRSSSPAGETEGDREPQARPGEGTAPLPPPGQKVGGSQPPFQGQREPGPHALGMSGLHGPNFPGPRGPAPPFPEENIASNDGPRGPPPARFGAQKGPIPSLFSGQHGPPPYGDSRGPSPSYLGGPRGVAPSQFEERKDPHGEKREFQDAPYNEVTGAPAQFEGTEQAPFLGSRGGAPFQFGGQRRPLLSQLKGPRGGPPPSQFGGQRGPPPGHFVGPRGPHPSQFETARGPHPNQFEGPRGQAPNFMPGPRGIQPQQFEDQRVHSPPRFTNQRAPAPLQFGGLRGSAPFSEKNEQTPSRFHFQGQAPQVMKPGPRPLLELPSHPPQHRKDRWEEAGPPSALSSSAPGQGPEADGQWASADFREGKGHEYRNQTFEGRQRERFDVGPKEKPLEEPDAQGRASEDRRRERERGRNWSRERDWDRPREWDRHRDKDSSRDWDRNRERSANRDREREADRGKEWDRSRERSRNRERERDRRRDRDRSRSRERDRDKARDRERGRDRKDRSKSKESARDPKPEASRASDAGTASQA
UniProt Q9BW19: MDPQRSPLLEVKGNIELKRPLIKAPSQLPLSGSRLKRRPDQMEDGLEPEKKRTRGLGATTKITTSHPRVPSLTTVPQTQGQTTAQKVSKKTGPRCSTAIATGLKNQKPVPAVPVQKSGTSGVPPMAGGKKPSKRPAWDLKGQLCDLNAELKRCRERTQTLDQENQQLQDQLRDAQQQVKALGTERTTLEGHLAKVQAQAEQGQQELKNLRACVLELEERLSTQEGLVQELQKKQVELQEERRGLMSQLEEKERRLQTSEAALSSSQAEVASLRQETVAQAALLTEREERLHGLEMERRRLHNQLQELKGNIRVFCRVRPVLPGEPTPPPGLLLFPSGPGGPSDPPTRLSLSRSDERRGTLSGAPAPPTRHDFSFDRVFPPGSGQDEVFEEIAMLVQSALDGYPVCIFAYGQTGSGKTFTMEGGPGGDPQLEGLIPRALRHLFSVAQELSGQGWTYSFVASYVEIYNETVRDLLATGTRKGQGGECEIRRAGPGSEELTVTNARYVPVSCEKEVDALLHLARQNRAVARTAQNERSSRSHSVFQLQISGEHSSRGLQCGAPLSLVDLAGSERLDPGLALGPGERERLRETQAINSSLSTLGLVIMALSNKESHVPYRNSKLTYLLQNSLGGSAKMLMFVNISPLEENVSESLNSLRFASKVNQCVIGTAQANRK
UniProt Q9BW91: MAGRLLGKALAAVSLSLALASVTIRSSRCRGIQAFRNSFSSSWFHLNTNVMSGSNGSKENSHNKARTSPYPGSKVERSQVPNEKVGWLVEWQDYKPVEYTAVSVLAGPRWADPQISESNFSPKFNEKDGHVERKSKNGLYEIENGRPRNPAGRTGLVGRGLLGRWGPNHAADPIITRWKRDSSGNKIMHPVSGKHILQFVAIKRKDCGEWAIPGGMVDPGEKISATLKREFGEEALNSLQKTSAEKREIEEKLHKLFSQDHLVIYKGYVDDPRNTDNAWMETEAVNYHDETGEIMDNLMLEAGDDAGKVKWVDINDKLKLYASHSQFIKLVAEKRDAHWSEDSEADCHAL
UniProt Q9BZE9, whole entry, looked up: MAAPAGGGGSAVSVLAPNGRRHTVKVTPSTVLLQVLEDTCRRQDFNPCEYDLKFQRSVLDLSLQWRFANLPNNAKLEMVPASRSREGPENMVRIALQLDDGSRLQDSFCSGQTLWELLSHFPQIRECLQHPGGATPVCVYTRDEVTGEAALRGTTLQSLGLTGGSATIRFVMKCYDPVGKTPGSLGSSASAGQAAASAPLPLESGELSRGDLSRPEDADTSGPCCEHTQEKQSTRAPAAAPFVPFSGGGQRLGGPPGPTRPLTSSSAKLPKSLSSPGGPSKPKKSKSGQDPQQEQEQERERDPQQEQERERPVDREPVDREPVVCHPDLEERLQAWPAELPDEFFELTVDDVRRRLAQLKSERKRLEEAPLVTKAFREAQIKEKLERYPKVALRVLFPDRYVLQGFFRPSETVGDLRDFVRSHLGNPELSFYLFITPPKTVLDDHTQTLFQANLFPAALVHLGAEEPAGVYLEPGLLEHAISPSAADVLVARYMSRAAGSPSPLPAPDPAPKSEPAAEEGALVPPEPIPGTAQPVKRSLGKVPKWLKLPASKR
UniProt Q9GZP4: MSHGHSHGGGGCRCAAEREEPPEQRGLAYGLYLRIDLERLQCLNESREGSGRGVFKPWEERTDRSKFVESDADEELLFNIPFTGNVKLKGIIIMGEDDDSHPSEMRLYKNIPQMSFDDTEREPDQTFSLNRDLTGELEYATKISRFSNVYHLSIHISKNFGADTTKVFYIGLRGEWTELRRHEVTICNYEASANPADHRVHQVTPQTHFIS
UniProt Q9BWG4: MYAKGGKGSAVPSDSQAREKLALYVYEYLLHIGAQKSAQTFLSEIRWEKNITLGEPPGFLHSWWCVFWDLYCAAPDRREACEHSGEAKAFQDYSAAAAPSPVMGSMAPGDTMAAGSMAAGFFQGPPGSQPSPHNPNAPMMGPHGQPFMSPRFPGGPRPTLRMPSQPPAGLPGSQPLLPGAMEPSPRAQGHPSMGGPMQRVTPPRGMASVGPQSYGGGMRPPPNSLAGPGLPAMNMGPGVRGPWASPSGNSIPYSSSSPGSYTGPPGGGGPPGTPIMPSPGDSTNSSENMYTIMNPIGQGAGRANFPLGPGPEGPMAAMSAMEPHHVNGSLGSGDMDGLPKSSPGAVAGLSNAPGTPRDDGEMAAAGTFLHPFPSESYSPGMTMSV

Compound in this assay: COC(=O)/C=C/c1ccccc1 [methyl cinnamate]
Briefly: log2 ratio of iodoacetamide-alkyne labeling of the cysteine site, DMSO over compound (competition); higher = stronger covalent engagement of the cysteine by the compound, active = 1 or more. To be noted: 500 µM; treatment time 1 h; system: HEK293T cell lysate. A digest of the protocol: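 After 1 h at ambient temperature with vehicle or electrophile (500 µM), HEK293T lysate (2 mg/mL) was labelled for 1 h with iodoacetamide alkyne and clicked to sCIP-TMT reagents. Pooled samples were trypsin-digested overnight at 37 °C, streptavidin-enriched, acid-eluted and analysed by Orbitrap Eclipse LC-MS/MS with FAIMS, then quantified in FragPipe over three replicates with duplicate channels. A cysteine's log2 competition ratio is its mean control-channel over mean compound-channel reporter intensity. Cysteines quantified in only one replicate were not included.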
Consider UBE2O C598 (UniProt Q9C0C9), for which the “log2 ratio of iodoacetamide-alkyne labeling” value (from here on “log2 ratio”) was inactive: 0.0969. In the case of SLC4A1AP C336 (UniProt Q9BWU0), the “log2 ratio” value was inactive: 0.0881. SLC12A9 C911 (UniProt Q9BXP2): the “log2 ratio” value was inactive: -0.019. For UniProt Q9BXJ9_C322, the “log2 ratio” value was inactive: 0.148. For UBE2O C182 (UniProt Q9C0C9) the value was inactive: 0.0311.

Take SLK C1138 (UniProt Q9H2G2): the “log2 ratio” value was inactive: 0.17. Under UBE2O C341 (UniProt Q9C0C9) stands inactive: 0.00914; under XPO4 C1149 (UniProt Q9C0E2), inactive: -0.201. For RNF126 C229 (UniProt Q9BV68) the value was inactive: -0.494. Under DIDO1 C976 (UniProt Q9BTC0) stands inactive: 0.336; under GNB1L C116 (UniProt Q9BYB4), inactive: -0.163; under UniProt Q9BTX1_C369, inactive: 0.268. Consider KIFC1 C144 (UniProt Q9BW19), for which the “log2 ratio” value was inactive: 0.412.

NUDT9 C347 (UniProt Q9BW91): the “log2 ratio” value was inactive: 0.18. Under ASPSCR1 C109 (UniProt Q9BZE9) stands inactive: -0.112. For KIFC1 C212 (UniProt Q9BW19), the “log2 ratio” value is inactive: 0.152. With UniProt Q9GZP4_C14, the “log2 ratio” value is inactive: 0.0997.

UniProt Q9H1E5_C326: the “log2 ratio” value was inactive: 0.218. For TANC1 C131 (UniProt Q9C0D5), the “log2 ratio” value is inactive: 0.341. On to UniProt Q9BXJ9_C817, for which the “log2 ratio” value is inactive: 0.0122.

On to SSBP4 C81 (UniProt Q9BWG4), for which the “log2 ratio” value is inactive: 0.363. Take THUMPD3 C391 (UniProt Q9BV44): the “log2 ratio” value was inactive: 0.147.

The record behind these values is the supplement of paper PMC11006884.
